This test concerns the target T1, Kaiso (human (endogenous in HeLa-GFP-centrin and SK-LMS-1)) (UniProt Q86T24).
T1 sequence: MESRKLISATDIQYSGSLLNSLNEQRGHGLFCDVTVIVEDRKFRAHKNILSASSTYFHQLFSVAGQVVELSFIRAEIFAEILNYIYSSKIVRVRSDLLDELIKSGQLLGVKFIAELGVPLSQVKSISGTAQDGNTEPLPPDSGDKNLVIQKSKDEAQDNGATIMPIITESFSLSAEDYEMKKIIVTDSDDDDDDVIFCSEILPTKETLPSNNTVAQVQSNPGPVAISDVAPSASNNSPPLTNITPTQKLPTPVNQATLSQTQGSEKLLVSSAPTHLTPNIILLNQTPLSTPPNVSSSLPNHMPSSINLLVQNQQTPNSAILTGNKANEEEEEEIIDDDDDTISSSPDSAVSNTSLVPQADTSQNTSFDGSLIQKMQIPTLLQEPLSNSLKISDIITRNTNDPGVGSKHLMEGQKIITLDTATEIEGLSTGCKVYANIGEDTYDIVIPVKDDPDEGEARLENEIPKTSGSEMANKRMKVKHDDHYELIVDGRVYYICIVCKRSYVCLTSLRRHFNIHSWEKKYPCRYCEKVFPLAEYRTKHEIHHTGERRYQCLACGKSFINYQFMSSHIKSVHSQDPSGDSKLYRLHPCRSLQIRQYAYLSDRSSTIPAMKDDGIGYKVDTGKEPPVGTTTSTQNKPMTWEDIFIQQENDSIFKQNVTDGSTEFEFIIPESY
Briefly: co-IP; endogenous proteins; lysates of HeLa-GFP-centrin and SK-LMS-1 cells in 145 mM NaCl, 5 mM EDTA, 2 mM EGTA, 10 mM Tris-HCl pH 7.4, 1% Triton X-100; precipitated with anti-Kaiso pAb S1337 on Dynabeads protein G; western blot. (In western blotting, separated proteins are transferred to a membrane and probed.)

By UniProt entry, the sequences of proteins in these tests, tags left out. Where a name states a change or a piece, a line headed by the entry shows the natural chain unless it says otherwise.
UniProt P23258: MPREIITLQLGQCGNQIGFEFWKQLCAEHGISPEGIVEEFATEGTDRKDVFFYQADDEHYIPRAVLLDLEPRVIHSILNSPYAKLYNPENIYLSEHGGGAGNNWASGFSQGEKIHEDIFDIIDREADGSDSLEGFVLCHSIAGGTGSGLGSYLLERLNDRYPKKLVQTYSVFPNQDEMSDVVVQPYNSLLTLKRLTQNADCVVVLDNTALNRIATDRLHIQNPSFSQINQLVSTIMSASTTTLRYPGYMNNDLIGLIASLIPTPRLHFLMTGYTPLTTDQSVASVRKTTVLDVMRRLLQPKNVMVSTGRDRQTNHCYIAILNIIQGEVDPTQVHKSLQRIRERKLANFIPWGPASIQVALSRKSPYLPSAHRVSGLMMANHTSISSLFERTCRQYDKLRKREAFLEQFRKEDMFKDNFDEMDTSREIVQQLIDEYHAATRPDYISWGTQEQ

No constants are given. Whether binding was seen depends on the method and setting. Binding seen in cells or lysates may run through a third protein. Binding can be weak; no strength is given. Tags and fused reporters may be left off the sequences shown.

With γ-tubulin (from UniProt P23258), the binding entry is on record as “binds”.

For the origin of these results see paper PMC2821401.
